Data reported in PMC12627648.
Results are given in words; binding and its absence hold for the method and conditions named. In cells and extracts the contact can be indirect. Binding calls can cover weak binding; strength is not graded here. Each block holds one substance with its values, some of them ahead of it.

Protein sequences, listed by entry. Tags and fused reporters are not part of them. Lines headed by an entry give the natural chain unless they say otherwise; changes in a name come on top. Residues count along the entry.
UniProt P42224: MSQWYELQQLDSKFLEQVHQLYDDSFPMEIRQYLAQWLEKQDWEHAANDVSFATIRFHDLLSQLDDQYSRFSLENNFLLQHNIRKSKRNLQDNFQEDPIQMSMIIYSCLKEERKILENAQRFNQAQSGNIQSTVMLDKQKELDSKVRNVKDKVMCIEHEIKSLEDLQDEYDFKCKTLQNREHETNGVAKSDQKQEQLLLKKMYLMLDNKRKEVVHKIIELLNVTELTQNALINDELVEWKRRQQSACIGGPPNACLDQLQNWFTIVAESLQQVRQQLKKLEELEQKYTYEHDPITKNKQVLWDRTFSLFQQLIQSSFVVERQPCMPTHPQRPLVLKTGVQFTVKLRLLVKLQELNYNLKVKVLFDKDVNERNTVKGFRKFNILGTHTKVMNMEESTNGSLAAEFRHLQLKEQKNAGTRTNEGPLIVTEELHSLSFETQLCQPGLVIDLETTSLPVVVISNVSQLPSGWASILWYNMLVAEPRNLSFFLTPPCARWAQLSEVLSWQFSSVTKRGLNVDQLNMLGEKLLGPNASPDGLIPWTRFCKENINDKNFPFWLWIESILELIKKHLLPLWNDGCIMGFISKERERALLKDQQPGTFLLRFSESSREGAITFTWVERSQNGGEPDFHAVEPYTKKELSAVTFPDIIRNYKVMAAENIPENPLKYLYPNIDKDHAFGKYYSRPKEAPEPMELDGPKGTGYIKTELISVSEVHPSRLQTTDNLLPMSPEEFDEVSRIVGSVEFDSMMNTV
UniProt Q9NZC2, residues 19-230: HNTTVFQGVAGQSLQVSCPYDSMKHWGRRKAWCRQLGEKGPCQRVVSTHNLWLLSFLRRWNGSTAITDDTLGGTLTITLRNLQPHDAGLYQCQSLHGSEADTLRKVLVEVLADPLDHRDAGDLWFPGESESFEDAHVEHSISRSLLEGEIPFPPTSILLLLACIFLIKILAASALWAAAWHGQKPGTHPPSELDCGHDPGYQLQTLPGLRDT
UniProt P19474: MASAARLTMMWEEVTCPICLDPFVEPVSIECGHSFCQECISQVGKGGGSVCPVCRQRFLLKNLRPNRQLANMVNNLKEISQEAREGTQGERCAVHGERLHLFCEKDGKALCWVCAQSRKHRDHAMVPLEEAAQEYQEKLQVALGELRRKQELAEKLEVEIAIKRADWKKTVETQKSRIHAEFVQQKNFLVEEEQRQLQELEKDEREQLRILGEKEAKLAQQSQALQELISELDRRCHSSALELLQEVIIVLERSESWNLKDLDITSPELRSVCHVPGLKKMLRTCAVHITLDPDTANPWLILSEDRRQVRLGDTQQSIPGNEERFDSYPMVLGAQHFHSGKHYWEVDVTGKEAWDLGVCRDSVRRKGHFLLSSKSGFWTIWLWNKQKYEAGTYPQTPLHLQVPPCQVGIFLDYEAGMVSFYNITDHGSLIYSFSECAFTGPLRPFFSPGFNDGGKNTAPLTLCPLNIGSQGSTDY

Experiments:
[1] = target: STAT1 truncation mutant, SH2 domain (577-683 aa) (UniProt P42224); assay: co-IP; HEK293T cells transfected with tagged TREM2, TRIM21, STAT1 (full length or truncation mutants) or SYK; increasing doses of MYC-TRIM21 in the presence of MG132 in one panel
GST-TREM2 = GST-TREM2 (UniProt Q9NZC2); assay: pull-down; GST fusion proteins from E. coli BL21 (DE3), Pierce GST Protein Interaction Pull-Down Kit; the SYK-STAT1 pull-down with or without TREM2
Flag-TREM2 = Flag-TREM2 (UniProt Q9NZC2); assay: co-IP; HEK293T cells transfected with tagged TREM2, TRIM21, STAT1 (full length or truncation mutants) or SYK; increasing doses of MYC-TRIM21 in the presence of MG132 in one panel

binding [1]: binds
Substance: Myc-TRIM21 (from UniProt P19474 1-475) (enzyme)

binding (GST-TREM2): binds
Substance: STAT1 (partner of GST-TREM2 in the GST pull-down) (from UniProt P42224 1-750)

binding (Flag-TREM2): binds
Substance: STAT1 truncation mutant, SH2 domain (577-683 aa) (from UniProt P42224) (domain or fragment)
